Reference: the supplement of paper PMC10689618
The other results are listed elsewhere or left out. Repeats are few or missing, and single values can be far off.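 Primary human fetal astrocytes engulfed labelled rat cortical synaptosomes, measured as a red/green ratio corrected for calcein live-cell signal and scaled to the plate median. Toxicity meant calcein falling over 30%; decreased phagocytosis meant below 70% of median above 5 µM.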

Each molecule was assayed on Human fetal astrocytes (assay: synaptosome phagocytosis (pHrodo/calcein intensity ratio) relative to plate median of data wells; higher = more phagocytosis). Conditions: 2.78 µM; 24 h.
Work on `C[C@H]1O[C@@H](O[C@H]2[C@@H](O)C[C@H](O[C@H]3[C@@H](O)C[C@H](O[C@H]4CC[C@@]5(C)[C@H](CC[C@@H]6[C@@H]5C[C@@H](O)[C@]5(C)[C@@H](C7=CC(=O)OC7)CC[C@]65O)C4)O[C@@H]3C)O[C@@H]2C)C[C@H](O)[C@@H]1O` yielded a synaptosome phagocytosis of 55%. `CCCCOC(=O)c1ccc(O)cc1` showed a synaptosome phagocytosis of 83.4%. Molecule `COc1ccc(/C=C/C(=O)O)cc1OC` has a synaptosome phagocytosis of 86.3%. `Cc1cc(-n2c(=O)[nH]c(=O)n(C)c2=O)ccc1Oc1ccc(SC(F)(F)F)cc1` showed a synaptosome phagocytosis of 103%. `COc1ccc(-c2cc(=O)c3c(O)c(OC)c(OC)c(OC)c3o2)cc1` was tested, and the synaptosome phagocytosis was 84.2%. `COc1ccc2oc3ccccc3c(=O)c2c1` was tested, and the synaptosome phagocytosis was 95.4%. Work on `Cc1cc2nc3c(=O)[nH]c(=O)nc-3n(C[C@H](O)[C@H](O)[C@H](O)CO)c2cc1C` yielded a synaptosome phagocytosis of 118%. `C#C[C@]1(OC(C)=O)CC[C@H]2[C@@H]3CCC4=C[C@@H](OC(C)=O)CC[C@@H]4[C@H]3CC[C@@]21C` showed a synaptosome phagocytosis of 104%. `NCCCC(=O)O` gave a synaptosome phagocytosis of 97.2%. `CCCCS(=N)(=O)CCC(N)C(=O)O` (racemic) [DL-Buthionine-[S,R]-sulfoximine] was tested, and the synaptosome phagocytosis was 120%. In the case of `CC(=O)O[C@@H]1CC(=O)[C@@]2(C)C(CC(=O)[C@]3(C)C2CC[C@@]2(C)[C@H](c4ccoc4)OC(=O)C4OC423)C1(C)C` (some centres not stated), the synaptosome phagocytosis is reported as 124%. In the case of `COc1cc(C(C)=O)cc(OC)c1O`, the synaptosome phagocytosis is reported as 148%. Work on `NCC(O)CC(=O)O` (configuration not stated) yielded a synaptosome phagocytosis of 93.6%. With `CC(=O)O[C@H]1CC[C@@]2(C)C(=CC=C3[C@@H]4CC[C@H]([C@H](C)/C=C/[C@H](C)C(C)C)[C@@]4(C)CC[C@@H]32)C1` the synaptosome phagocytosis was 102%. Work on `C[C@H](CCC(=O)O)[C@H]1CC[C@H]2[C@@H]3[C@H](O)C[C@@H]4C[C@H](O)CC[C@]4(C)[C@H]3CC[C@]12C` yielded a synaptosome phagocytosis of 102%. `CC(=O)[C@@]1(O)CC[C@H]2[C@@H]3C=C(Cl)C4=CC(=O)[C@@H]5C[C@@H]5[C@]4(C)[C@H]3CC[C@@]21C` was tested, and the synaptosome phagocytosis was 117%. `COc1cc(-c2cc(=O)c3c(O)c(OC)c(OC)c(OC)c3o2)cc(OC)c1OC` was tested, and the synaptosome phagocytosis was 72.5%. `OC[C@H]1O[C@@H](n2cnc3c(NCc4ccco4)ncnc32)[C@H](O)[C@@H]1O` was tested, and the synaptosome phagocytosis was 126%. With `C=C1C2CC[C@@]3(C)[C@H](c4ccoc4)OC(=O)C[C@]13O[C@H]1CC(=O)C(C)(C)[C@H](C(O)C(=O)OC)[C@@]21C` (some centres not stated) the synaptosome phagocytosis was 114%. In the case of `CCN(CC)Cc1cc(Nc2ccnc3cc(Cl)ccc23)ccc1O`, the synaptosome phagocytosis is reported as 79.6%. Work on `COc1ccc(-c2cc(=O)c3c(OC)cc(OC)cc3o2)cc1` yielded a synaptosome phagocytosis of 88.4%. With `Cc1cc(=O)n(-c2ccccc2)n1C` the synaptosome phagocytosis was 101%. With `COc1ccc(-c2cc(=O)c3c(O)cc(O)cc3o2)cc1` the synaptosome phagocytosis was 126%.

Same assay, conditions: 5.56 µM; 24 h
`CN(C)CCc1c[nH]c2ccc(Cn3cncn3)cc12` gave a synaptosome phagocytosis of 114%. `O=Cc1ccccc1O[C@@H]1O[C@H](CO)[C@@H](O)[C@H](O)[C@H]1O` gave a synaptosome phagocytosis of 120%. Work on `CS(=O)(=O)OCCCCOS(C)(=O)=O` [GT 41 X 149 Mablin CB 2041 G.T. 41 GT 2041 Mileran Myleran] yielded a synaptosome phagocytosis of 93.7%. With `C1CCC(C(CC2CCCCN2)C2CCCCC2)CC1` (configuration not stated) the synaptosome phagocytosis was 19.2%. `NCCC(=O)c1ccccc1N` gave a synaptosome phagocytosis of 103%. `Nc1ccc(S(=O)(=O)Nc2ncccn2)cc1` gave a synaptosome phagocytosis of 94.4%. `CNc1ccccc1C(=O)N1CCc2c([nH]c3ccccc23)C1=O` showed a synaptosome phagocytosis of 98.8%. Molecule `CN(C)CCOC(=O)C(c1ccccc1)C1(O)CCCC1` (configuration not stated) has a synaptosome phagocytosis of 100%. For `CC(C)/C(O)=C1/C(=O)O[C@@H](c2ccoc2)[C@]2(C)C(O)[C@@H](O)[C@@]34OC5(C)OC67CC(C)(C(O)[C@]6(O)[C@@H](O)[C@]3(O5)C12)[C@H](CC(=O)O)[C@]74C` (some centres not stated), the synaptosome phagocytosis was 124%. For `CC1Cc2ccccc2N1NC(=O)c1ccc(Cl)c(S(N)(=O)=O)c1` (configuration not stated), the synaptosome phagocytosis was 117%. Work on `O=C(/C=C/C=C/c1ccc2c(c1)OCO2)N1CCCCC1` yielded a synaptosome phagocytosis of 85.3%. `C1N2CN3CN1CN(C2)C3` showed a synaptosome phagocytosis of 86%. Work on `CC1(C)[C@@H](O)CC[C@]2(C)[C@H]3C(=O)C=C4[C@H]5C[C@@](C)(C(=O)O)CC[C@]5(C)CC[C@@]4(C)[C@]3(C)CC[C@@H]12` [18alpha-GLYCYRRHETINIC ACID] yielded a synaptosome phagocytosis of 111%. `COc1ccc([C@H]2Oc3cc(OC)cc(OC)c3C[C@H]2O)cc1` showed a synaptosome phagocytosis of 108%. Work on `O=c1[nH]cnc2nc[nH]c12` yielded a synaptosome phagocytosis of 106%. `CC[C@H]1OC(=O)C[C@@H](O)[C@H](C)[C@@H](O[C@@H]2O[C@H](C)[C@@H](O)[C@H](N(C)C)[C@H]2O)[C@@H](CCN2C[C@H](C)C[C@H](C)C2)C[C@@H](C)C(=O)/C=C/C(C)=C/[C@@H]1CO[C@@H]1O[C@H](C)[C@@H](O)[C@@H](OC)[C@H]1OC` was tested, and the synaptosome phagocytosis was 75.5%. Work on `C[C@H]1O[C@@H](O[C@H]2[C@@H](O)C[C@H](O[C@H]3[C@@H](O)C[C@H](O[C@H]4CC[C@@]5(C)[C@H](CC[C@@H]6[C@@H]5C[C@@H](O)[C@]5(C)[C@@H](C7=CC(=O)OC7)CC[C@]65O)C4)O[C@@H]3C)O[C@@H]2C)C[C@H](O)[C@@H]1O` yielded a synaptosome phagocytosis of 46.7%. In the case of `CCCCOC(=O)c1ccc(O)cc1`, the synaptosome phagocytosis is reported as 85.2%. Work on `COc1ccc(/C=C/C(=O)O)cc1OC` yielded a synaptosome phagocytosis of 92.4%. For `Cc1cc(-n2c(=O)[nH]c(=O)n(C)c2=O)ccc1Oc1ccc(SC(F)(F)F)cc1`, the synaptosome phagocytosis was 105%. Molecule `COc1ccc(-c2cc(=O)c3c(O)c(OC)c(OC)c(OC)c3o2)cc1` has a synaptosome phagocytosis of 99.8%. `COc1ccc2oc3ccccc3c(=O)c2c1` was tested, and the synaptosome phagocytosis was 100%. Work on `Cc1cc2nc3c(=O)[nH]c(=O)nc-3n(C[C@H](O)[C@H](O)[C@H](O)CO)c2cc1C` yielded a synaptosome phagocytosis of 105%. `C#C[C@]1(OC(C)=O)CC[C@H]2[C@@H]3CCC4=C[C@@H](OC(C)=O)CC[C@@H]4[C@H]3CC[C@@]21C` was tested, and the synaptosome phagocytosis was 101%. `NCCCC(=O)O` gave a synaptosome phagocytosis of 50.3%. `CCCCS(=N)(=O)CCC(N)C(=O)O` (racemic) [DL-Buthionine-[S,R]-sulfoximine] showed a synaptosome phagocytosis of 92.5%. `CC(=O)O[C@@H]1CC(=O)[C@@]2(C)C(CC(=O)[C@]3(C)C2CC[C@@]2(C)[C@H](c4ccoc4)OC(=O)C4OC423)C1(C)C` (some centres not stated) gave a synaptosome phagocytosis of 132%. Molecule `COc1cc(C(C)=O)cc(OC)c1O` has a synaptosome phagocytosis of 132%. With `NCC(O)CC(=O)O` (configuration not stated) the synaptosome phagocytosis was 82.1%. For `CC(=O)O[C@H]1CC[C@@]2(C)C(=CC=C3[C@@H]4CC[C@H]([C@H](C)/C=C/[C@H](C)C(C)C)[C@@]4(C)CC[C@@H]32)C1`, the synaptosome phagocytosis was 122%. `C[C@H](CCC(=O)O)[C@H]1CC[C@H]2[C@@H]3[C@H](O)C[C@@H]4C[C@H](O)CC[C@]4(C)[C@H]3CC[C@]12C` was tested, and the synaptosome phagocytosis was 77%. `CC(=O)[C@@]1(O)CC[C@H]2[C@@H]3C=C(Cl)C4=CC(=O)[C@@H]5C[C@@H]5[C@]4(C)[C@H]3CC[C@@]21C` gave a synaptosome phagocytosis of 110%. With `COc1cc(-c2cc(=O)c3c(O)c(OC)c(OC)c(OC)c3o2)cc(OC)c1OC` the synaptosome phagocytosis was 106%. For `OC[C@H]1O[C@@H](n2cnc3c(NCc4ccco4)ncnc32)[C@H](O)[C@@H]1O`, the synaptosome phagocytosis was 95.5%. `C=C1C2CC[C@@]3(C)[C@H](c4ccoc4)OC(=O)C[C@]13O[C@H]1CC(=O)C(C)(C)[C@H](C(O)C(=O)OC)[C@@]21C` (some centres not stated) gave a synaptosome phagocytosis of 84%. In the case of `CCN(CC)Cc1cc(Nc2ccnc3cc(Cl)ccc23)ccc1O`, the synaptosome phagocytosis is reported as 87%. In the case of `COc1ccc(-c2cc(=O)c3c(OC)cc(OC)cc3o2)cc1`, the synaptosome phagocytosis is reported as 80%. `Cc1cc(=O)n(-c2ccccc2)n1C` gave a synaptosome phagocytosis of 98.4%. In the case of `COc1ccc(-c2cc(=O)c3c(O)cc(O)cc3o2)cc1`, the synaptosome phagocytosis is reported as 93.1%.
